Measured values reported in article PMC12700102.

The chains behind the UniProt entries cited, without tags or fusion partners.
UniProt Q5JSZ5: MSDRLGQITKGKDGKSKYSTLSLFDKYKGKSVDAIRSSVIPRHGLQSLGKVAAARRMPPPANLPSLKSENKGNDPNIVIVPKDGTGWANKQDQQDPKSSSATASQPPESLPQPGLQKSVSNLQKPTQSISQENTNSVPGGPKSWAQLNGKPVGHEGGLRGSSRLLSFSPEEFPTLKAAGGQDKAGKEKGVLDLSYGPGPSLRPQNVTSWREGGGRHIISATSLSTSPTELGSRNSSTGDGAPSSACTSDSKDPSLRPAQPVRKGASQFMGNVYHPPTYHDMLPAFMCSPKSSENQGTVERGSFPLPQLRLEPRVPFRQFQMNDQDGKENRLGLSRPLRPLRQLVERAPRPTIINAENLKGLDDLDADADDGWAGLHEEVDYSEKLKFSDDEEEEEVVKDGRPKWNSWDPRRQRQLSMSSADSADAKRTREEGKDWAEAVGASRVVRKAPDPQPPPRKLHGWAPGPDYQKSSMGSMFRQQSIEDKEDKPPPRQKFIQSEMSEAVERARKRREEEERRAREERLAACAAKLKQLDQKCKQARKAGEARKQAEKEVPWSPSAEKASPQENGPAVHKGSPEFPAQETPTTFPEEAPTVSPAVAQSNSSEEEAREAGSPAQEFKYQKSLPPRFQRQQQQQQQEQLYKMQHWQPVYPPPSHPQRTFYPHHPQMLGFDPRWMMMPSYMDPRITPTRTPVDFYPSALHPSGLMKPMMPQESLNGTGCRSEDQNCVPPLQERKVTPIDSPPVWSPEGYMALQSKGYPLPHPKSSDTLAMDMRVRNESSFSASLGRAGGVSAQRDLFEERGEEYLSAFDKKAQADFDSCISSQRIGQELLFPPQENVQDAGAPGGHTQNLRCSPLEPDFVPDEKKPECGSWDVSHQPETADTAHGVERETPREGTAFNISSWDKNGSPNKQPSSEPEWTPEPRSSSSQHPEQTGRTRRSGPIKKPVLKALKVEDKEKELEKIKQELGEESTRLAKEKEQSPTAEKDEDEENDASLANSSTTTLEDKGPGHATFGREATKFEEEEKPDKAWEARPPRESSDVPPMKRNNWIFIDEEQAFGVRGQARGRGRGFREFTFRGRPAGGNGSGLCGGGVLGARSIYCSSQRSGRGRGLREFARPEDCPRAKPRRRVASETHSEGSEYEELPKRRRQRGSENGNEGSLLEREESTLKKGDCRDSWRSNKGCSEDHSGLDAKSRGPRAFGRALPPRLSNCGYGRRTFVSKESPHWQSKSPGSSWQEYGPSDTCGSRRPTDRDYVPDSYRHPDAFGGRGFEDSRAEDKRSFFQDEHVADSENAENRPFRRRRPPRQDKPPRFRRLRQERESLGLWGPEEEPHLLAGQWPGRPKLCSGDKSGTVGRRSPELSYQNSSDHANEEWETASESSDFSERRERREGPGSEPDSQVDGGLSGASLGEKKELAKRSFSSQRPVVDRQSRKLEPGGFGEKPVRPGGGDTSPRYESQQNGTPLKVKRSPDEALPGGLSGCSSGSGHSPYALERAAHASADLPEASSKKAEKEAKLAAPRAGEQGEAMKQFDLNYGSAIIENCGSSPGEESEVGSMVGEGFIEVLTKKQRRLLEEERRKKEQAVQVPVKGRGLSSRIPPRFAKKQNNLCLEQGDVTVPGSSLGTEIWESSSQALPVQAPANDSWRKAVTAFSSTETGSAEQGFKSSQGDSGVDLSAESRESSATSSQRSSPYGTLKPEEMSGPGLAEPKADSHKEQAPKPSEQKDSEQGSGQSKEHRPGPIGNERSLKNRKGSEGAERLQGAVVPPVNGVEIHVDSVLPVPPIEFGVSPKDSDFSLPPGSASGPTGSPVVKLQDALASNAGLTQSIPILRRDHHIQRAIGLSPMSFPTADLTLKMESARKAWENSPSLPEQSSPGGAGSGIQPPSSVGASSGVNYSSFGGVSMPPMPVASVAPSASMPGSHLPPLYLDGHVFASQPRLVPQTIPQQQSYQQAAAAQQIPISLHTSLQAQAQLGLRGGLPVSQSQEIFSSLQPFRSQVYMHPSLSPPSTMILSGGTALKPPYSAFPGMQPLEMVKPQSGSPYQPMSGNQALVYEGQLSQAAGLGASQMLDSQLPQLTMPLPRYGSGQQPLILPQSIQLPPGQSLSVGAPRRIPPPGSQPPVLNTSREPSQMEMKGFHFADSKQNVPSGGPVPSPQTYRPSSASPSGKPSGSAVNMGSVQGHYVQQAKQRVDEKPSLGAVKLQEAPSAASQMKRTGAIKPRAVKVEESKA
UniProt P78344: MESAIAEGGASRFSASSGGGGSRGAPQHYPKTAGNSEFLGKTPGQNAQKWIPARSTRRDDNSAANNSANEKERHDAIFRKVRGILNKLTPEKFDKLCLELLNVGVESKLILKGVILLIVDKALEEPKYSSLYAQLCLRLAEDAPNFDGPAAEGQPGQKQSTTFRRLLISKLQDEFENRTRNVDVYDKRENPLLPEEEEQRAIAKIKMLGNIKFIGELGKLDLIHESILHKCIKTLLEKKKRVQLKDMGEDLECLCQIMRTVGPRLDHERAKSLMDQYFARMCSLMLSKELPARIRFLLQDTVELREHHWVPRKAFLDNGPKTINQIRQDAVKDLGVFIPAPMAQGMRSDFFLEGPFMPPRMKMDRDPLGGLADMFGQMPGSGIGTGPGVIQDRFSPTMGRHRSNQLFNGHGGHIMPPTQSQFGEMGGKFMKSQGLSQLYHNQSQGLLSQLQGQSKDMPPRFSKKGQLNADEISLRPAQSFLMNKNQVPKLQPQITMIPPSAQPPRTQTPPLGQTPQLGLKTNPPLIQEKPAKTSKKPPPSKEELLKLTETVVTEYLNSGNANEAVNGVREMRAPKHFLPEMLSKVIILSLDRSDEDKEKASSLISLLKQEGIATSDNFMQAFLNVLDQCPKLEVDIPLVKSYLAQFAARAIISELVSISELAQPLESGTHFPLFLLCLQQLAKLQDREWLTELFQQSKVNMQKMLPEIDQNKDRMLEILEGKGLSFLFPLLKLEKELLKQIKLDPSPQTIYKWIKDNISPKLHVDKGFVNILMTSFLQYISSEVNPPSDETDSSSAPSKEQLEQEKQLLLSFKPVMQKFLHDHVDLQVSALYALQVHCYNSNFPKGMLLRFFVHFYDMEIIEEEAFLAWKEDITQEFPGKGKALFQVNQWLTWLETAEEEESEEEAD
UniProt Q71RC2: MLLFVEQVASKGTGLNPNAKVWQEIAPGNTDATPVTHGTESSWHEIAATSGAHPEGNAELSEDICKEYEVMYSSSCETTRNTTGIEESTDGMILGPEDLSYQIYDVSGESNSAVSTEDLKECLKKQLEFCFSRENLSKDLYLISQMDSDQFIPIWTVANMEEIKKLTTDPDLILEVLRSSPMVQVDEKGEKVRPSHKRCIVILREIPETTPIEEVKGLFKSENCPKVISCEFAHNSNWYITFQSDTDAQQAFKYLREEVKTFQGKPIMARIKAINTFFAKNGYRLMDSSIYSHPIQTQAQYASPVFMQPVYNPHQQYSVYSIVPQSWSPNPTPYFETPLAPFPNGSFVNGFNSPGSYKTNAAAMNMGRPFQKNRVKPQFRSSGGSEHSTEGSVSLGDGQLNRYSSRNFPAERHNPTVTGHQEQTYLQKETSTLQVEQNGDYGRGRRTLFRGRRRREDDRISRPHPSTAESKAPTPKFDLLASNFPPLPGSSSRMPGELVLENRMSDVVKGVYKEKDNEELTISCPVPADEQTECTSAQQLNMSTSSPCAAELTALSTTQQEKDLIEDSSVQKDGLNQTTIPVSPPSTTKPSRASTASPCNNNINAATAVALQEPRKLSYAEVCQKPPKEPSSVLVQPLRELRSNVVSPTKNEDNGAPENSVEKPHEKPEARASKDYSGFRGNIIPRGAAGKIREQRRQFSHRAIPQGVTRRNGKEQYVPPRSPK
UniProt Q92615: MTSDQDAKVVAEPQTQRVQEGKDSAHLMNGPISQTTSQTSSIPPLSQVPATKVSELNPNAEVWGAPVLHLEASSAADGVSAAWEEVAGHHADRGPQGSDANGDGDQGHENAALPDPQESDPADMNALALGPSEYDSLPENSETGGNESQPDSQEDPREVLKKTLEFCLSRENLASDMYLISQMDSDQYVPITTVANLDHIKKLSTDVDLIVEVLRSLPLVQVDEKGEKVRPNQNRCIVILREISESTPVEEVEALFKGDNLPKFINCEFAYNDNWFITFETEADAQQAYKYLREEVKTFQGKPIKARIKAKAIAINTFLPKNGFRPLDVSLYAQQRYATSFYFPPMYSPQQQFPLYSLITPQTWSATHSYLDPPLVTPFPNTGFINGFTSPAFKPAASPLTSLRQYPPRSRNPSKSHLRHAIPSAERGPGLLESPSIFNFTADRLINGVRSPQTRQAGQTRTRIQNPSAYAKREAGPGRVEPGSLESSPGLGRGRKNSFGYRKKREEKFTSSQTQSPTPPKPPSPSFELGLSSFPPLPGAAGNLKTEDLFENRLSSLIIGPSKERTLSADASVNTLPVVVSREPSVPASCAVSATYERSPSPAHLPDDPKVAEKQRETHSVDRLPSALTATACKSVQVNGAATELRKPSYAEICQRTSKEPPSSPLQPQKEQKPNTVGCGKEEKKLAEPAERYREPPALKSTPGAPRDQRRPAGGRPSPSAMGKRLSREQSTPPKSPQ
UniProt P11940: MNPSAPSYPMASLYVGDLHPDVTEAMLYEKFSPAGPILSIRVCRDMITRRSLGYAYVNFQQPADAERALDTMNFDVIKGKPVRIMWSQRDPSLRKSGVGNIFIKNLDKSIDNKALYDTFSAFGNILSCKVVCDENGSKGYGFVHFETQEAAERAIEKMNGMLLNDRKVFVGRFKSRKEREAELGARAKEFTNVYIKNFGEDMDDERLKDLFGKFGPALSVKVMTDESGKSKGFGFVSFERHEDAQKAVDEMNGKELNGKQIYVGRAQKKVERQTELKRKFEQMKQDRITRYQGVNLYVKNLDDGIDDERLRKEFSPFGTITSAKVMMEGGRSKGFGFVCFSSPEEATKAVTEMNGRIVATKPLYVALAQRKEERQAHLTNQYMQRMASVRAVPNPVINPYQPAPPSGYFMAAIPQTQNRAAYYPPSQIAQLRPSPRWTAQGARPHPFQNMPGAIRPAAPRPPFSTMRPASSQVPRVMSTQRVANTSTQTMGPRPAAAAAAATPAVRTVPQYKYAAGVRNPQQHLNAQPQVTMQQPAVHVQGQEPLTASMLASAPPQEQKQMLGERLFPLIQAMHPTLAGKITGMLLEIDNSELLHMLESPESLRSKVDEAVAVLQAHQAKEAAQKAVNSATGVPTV
UniProt Q99873: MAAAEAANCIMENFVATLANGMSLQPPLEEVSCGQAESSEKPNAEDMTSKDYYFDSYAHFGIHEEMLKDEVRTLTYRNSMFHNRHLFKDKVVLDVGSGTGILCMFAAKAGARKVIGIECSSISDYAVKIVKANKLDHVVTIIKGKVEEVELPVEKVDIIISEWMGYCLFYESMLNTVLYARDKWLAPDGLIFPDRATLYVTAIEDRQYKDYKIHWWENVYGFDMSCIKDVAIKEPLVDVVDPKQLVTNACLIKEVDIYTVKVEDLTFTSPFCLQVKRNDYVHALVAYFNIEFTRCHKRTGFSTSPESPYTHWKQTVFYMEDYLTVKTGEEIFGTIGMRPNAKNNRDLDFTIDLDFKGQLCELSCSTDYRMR
UniProt O14744: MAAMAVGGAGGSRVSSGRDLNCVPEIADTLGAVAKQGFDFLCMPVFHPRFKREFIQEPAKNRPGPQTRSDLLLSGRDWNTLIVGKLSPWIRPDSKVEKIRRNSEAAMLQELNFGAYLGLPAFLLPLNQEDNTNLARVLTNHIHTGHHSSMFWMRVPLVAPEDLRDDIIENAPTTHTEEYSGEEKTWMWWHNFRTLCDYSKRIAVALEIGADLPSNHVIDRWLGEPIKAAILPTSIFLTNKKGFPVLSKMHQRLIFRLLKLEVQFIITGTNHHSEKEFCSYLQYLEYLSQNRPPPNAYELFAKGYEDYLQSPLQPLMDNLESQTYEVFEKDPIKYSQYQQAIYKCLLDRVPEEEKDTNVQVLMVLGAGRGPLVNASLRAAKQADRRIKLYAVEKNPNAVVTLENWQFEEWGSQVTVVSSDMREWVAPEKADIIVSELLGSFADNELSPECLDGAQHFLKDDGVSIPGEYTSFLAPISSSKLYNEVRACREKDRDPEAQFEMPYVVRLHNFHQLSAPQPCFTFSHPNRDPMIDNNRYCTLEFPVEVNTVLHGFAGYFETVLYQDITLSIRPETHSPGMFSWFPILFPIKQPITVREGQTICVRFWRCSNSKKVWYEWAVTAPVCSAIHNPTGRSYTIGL

Tests used:
Experiment in all cases: affinity purification with mass spectrometry; HA-tagged PRRC2B isoform or HA-mCherry control transfected 24 h in HEK 293T; lysis in buffer B (20 mM HEPES-KOH pH 7.6, 100 mM KCl, 0.5 mM EDTA, 0.4% NP-40, 20% glycerol); anti-HA beads 2 h at 4°C; eluates by LC-MS; hits: at least 2 peptides, >2-fold over mCherry IP, FDR < 0.05
[1] = target: PRRC2B-long (PRRC2BL), HA-tagged (human) (UniProt Q5JSZ5)
[2] = target: PRRC2B-long (PRRC2BL), HA-tagged (human) (UniProt Q5JSZ5); remark: listed apart in the source
[3] = target: PRRC2B-short (PRRC2BS), HA-tagged (human)

| Molecule | binding [1] | binding [2] | binding [3] |
| --- | --- | --- | --- |
| EIF4G2 (from UniProt P78344 1-907) | binds |  |  |
| G3BP1 (from UniProt Q13283 1-466) | binds |  |  |
| LARP4 (from UniProt Q71RC2 1-724) | binds |  |  |
| LARP4B (from UniProt Q92615 1-738) | binds |  |  |
| PABPC1 (from UniProt P11940 1-636) | binds |  |  |
| PRMT1 (from UniProt Q99873 1-371) (enzyme) | binds |  |  |
| PRMT5 (from UniProt O14744 1-637) (enzyme) | binds |  |  |
| G3BP2 (protein, UniProt Q9UN86 1-482) MVMEKPSPLLVGREFVRQYYTLLNKAPEYLHRFYGRNSSYVHGGVDASGKPQEAVYGQNDIHHKVLSLNFSECHTKIRHVDAHATLSDGVVVQVMGLLSNSGQPERKFMQTFVLAPEGSVPNKFYVHNDMFRYEDEVFGDSEPELDEESEDEVEEEQEERQPSPEPVQENANSGYYEAHPVTNGIEEPLEESSHEPEPEPESETKTEELKPQVEEKNLEELEEKSTTPPPAEPVSLPQEPPKAFSWASVTSKNLPPSGTVSSSGIPPHVKAPVSQPRVEAKPEVQSQPPRVREQRPRERPGFPPRGPRPGRGDMEQNDSDNRRIIRYPDSHQLFVGNLPHDIDENELKEFFMSFGNVVELRINTKGVGGKLPNFGFVVFDDSEPVQRILIAKPIMFRGEVRLNVEEKKTRAARERETRGGGDDRRDIRRNDRGPGGPRGIVGGGMMRDRDGRGPPPRGGMAQKLGSGRGTGQMEGRFTGQRR |  | binds | no binding |
| DHX29 (enzyme, UniProt Q7Z478 1-1369) MGGKNKKHKAPAAAVVRAAVSASRAKSAEAGIAGEAQSKKPVSRPATAAAAAAGSREPRVKQGPKIYSFNSTNDSSGPANLDKSILKVVINNKLEQRIIGVINEHKKQNNDKGMISGRLTAKKLQDLYMALQAFSFKTKDIEDAMTNTLLYGGDLHSALDWLCLNLSDDALPEGFSQEFEEQQPKSRPKFQSPQIQATISPPLQPKTKTYEEDPKSKPKKEEKNMEVNMKEWILRYAEQQNEEEKNENSKSLEEEEKFDPNERYLHLAAKLLDAKEQAATFKLEKNKQGQKEAQEKIRKFQREMETLEDHPVFNPAMKISHQQNERKKPPVATEGESALNFNLFEKSAAATEEEKDKKKEPHDVRNFDYTARSWTGKSPKQFLIDWVRKNLPKSPNPSFEKVPVGRYWKCRVRVIKSEDDVLVVCPTILTEDGMQAQHLGATLALYRLVKGQSVHQLLPPTYRDVWLEWSDAEKKREELNKMETNKPRDLFIAKLLNKLKQQQQQQQQHSENKRENSEDPEESWENLVSDEDFSALSLESANVEDLEPVRNLFRKLQSTPKYQKLLKERQQLPVFKHRDSIVETLKRHRVVVVAGETGSGKSTQVPHFLLEDLLLNEWEASKCNIVCTQPRRISAVSLANRVCDELGCENGPGGRNSLCGYQIRMESRACESTRLLYCTTGVLLRKLQEDGLLSNVSHVIVDEVHERSVQSDFLLIILKEILQKRSDLHLILMSATVDSEKFSTYFTHCPILRISGRSYPVEVFHLEDIIEETGFVLEKDSEYCQKFLEEEEEVTINVTSKAGGIKKYQEYIPVQTGAHADLNPFYQKYSSRTQHAILYMNPHKINLDLILELLAYLDKSPQFRNIEGAVLIFLPGLAHIQQLYDLLSNDRRFYSERYKVIALHSILSTQDQAAAFTLPPPGVRKIVLATNIAETGITIPDVVFVIDTGRTKENKYHESSQMSSLVETFVSKASALQRQGRAGRVRDGFCFRMYTRERFEGFMDYSVPEILRVPLEELCLHIMKCNLGSPEDFLSKALDPPQLQVISNAMNLLRKIGACELNEPKLTPLGQHLAALPVNVKIGKMLIFGAIFGCLDPVATLAAVMTEKSPFTTPIGRKDEADLAKSALAMADSDHLTIYNAYLGWKKARQEGGYRSEITYCRRNFLNRTSLLTLEDVKQELIKLVKAAGFSSSTTSTSWEGNRASQTLSFQEIALLKAVLVAGLYDNVGKIIYTKSVDVTEKLACIVETAQGKAQVHPSSVNRDLQTHGWLLYQEKIRYARVYLRETTLITPFPVLLFGGDIEVQHRERLLSIDGWIYFQAPVKIAVIFKQLRVLIDSVLRKKLENPKMSLENDKILQIITELIKTENN |  | binds | binds |

Like-named read-outs stand apart in the source and are kept apart here. Results are given in words; binding and its absence hold for the method and conditions named. Binding seen in cells or lysates may run through a third protein. Here binding means that the protein was enriched with, or labelled near, the bait; the list need not be complete. For some assays here: No binding means not detected with the bait.
